{"source": "patent US4684624A", "about": "(priority 1985, dated 1987)", "key": {"analgesic response": {"test_system": "analgesic response", "details": "cited from earlier work"}, "[1]": {"test_system": "acute focal cerebral ischemia (MCA occlusion)", "parameters": "species or system cat", "details": "in vivo; for lived up to 7 days / mortality, 24-28 hours / mortality, 48-72 hours / mortality, less than 24 hours: ip"}}, "note": "At least one peptide structure holds a part that was inferred or is arguable (an end, a ring closure or a residue). Residues, ends and D or L forms follow the SMILES beside them.", "data": [{"smiles": "CC[C@H](C)[C@H](NC(=O)[C@H](CCCNC(=N)N)NC(=O)[C@H](CCCNC(=N)N)NC(=O)[C@H](CC(C)C)NC(=O)[C@H](Cc1ccccc1)NC(=O)CNC(=O)CNC(=O)[C@@H](N)Cc1ccc(O)cc1)C(=O)N[C@@H](CCCNC(=N)N)C(=O)N1CCC[C@H]1C(N)=O", "note": "[Dynorphin (1-10) amide] (H-YGGFLRRIRP-NH2)", "values": [{"measurement": "antagonism of narcotic analgesics in naive animals", "setting": "analgesic response; naive animals (Woo et al.)", "result": "does not antagonize narcotic analgesics"}, {"measurement": "potentiation of analgesic effect in tolerant hosts", "setting": "analgesic response; tolerant hosts (Woo et al.)", "result": "does potentiate the analgesic effect"}, {"measurement": "conditions of survival", "setting": "[1]", "result": "of high quality and clinically quite significant"}, {"measurement": "effect in prolonging survival", "setting": "[1]", "result": "less impressive than for naloxone, naltrexone and dynorphin(1-13)"}, {"measurement": "lived up to 7 days", "setting": "[1]", "result": 20, "unit": "%"}, {"measurement": "mortality, 24-28 hours", "setting": "[1]", "result": 0, "unit": "%"}, {"measurement": "mortality, 48-72 hours", "setting": "[1]", "result": 0, "unit": "%"}, {"measurement": "mortality, less than 24 hours", "setting": "[1]", "result": 80, "unit": "%"}]}, {"smiles": "CC[C@H](C)[C@H](NC(=O)[C@H](CCCNC(=N)N)NC(=O)[C@H](CCCNC(=N)N)NC(=O)[C@H](CC(C)C)NC(=O)[C@H](Cc1ccccc1)NC(=O)CNC(=O)CNC(=O)[C@@H](N)Cc1ccc(O)cc1)C(=O)N[C@@H](CCCNC(=N)N)C(=O)N1CCC[C@H]1C(=O)N[C@@H](CCCCN)C(=O)N[C@@H](CC(C)C)C(=O)N[C@@H](CCCCN)C(=O)O", "note": "[Dynorphin (1-13)]", "values": [{"measurement": "effect in prolonging survival", "setting": "[1]", "result": "prolonged survival best of all the groups"}, {"measurement": "lived up to 7 days", "setting": "[1]", "result": 60, "unit": "%"}, {"measurement": "mortality, 24-28 hours", "setting": "[1]", "result": 20, "unit": "%"}, {"measurement": "mortality, 48-72 hours", "setting": "[1]", "result": 0, "unit": "%"}, {"measurement": "mortality, less than 24 hours", "setting": "[1]", "result": 20, "unit": "%"}]}]}
